Source: publication PMC7426271
Read-outs that look alike come from different tables or passages of the source. These are yes or no findings as the source states them, for the method shown. Binding seen in cells or lysates may run through a third protein. Some binding calls cover weakened binding; strength is not graded here.

Protein sequences, listed by entry. Tags and fused reporters are not part of them. Lines headed by an entry give the natural chain unless they say otherwise; changes in a name come on top.
UniProt P62960: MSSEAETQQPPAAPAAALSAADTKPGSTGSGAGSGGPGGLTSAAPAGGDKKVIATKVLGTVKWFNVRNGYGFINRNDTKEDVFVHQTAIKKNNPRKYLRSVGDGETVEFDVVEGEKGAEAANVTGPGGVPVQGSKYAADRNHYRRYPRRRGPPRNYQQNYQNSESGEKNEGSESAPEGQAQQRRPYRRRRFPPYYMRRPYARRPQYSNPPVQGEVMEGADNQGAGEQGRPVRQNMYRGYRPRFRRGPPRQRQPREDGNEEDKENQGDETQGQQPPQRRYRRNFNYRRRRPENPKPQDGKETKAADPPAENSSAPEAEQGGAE
UniProt Q15022: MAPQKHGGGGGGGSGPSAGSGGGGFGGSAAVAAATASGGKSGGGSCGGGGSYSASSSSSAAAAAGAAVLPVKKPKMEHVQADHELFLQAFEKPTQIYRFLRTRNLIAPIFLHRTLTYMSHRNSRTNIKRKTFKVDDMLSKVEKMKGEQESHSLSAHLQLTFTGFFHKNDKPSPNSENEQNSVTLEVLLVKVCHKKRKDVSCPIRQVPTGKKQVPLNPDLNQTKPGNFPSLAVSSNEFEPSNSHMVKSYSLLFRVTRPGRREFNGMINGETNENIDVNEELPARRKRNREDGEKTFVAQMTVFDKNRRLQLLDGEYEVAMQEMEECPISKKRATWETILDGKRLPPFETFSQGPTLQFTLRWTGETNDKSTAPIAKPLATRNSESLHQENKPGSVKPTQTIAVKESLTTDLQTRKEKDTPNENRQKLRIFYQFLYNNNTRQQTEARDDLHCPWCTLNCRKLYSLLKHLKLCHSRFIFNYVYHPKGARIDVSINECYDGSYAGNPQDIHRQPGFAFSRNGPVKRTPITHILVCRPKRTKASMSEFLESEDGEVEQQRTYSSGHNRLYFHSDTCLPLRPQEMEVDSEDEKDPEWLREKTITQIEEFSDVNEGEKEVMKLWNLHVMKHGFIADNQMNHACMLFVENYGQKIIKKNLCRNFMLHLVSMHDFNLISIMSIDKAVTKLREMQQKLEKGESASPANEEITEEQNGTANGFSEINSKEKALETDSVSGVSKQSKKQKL
UniProt Q96KQ7: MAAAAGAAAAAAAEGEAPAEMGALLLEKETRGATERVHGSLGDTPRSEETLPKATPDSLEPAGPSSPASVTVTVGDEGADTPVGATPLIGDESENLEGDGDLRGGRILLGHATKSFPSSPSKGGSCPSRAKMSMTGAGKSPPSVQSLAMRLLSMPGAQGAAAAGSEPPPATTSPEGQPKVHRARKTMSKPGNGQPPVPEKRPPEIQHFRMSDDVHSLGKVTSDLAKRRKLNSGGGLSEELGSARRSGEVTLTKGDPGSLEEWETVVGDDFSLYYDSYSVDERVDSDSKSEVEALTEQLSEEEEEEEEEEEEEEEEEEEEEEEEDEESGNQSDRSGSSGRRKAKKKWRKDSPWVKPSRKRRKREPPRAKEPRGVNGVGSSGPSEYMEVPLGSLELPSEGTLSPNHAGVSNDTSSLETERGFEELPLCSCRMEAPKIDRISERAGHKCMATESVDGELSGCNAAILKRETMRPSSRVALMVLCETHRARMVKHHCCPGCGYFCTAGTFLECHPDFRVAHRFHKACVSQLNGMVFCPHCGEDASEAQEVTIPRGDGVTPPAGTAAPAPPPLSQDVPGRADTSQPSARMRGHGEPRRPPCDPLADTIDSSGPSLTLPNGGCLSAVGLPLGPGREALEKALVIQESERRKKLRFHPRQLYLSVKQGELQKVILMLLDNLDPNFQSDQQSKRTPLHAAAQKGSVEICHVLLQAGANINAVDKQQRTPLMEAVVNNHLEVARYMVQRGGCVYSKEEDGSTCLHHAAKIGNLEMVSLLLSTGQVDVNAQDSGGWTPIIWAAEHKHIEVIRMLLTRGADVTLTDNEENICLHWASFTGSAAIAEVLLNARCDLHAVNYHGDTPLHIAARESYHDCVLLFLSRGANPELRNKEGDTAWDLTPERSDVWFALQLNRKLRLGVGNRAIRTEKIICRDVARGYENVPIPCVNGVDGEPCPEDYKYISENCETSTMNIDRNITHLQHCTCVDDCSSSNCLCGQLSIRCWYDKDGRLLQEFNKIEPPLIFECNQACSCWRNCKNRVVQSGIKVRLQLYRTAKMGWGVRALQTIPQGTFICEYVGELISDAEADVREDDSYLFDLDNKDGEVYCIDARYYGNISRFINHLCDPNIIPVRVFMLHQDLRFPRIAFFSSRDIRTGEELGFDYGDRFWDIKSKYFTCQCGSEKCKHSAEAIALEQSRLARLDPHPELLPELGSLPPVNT
UniProt P67809: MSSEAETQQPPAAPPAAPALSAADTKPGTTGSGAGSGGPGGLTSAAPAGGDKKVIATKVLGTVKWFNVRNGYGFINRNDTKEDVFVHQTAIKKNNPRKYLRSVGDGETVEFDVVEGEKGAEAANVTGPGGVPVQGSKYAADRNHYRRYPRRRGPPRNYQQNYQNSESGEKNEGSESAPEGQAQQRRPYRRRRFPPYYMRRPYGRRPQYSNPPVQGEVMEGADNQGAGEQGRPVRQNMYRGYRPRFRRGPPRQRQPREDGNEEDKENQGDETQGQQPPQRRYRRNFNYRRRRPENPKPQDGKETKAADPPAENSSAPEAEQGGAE
UniProt Q61188: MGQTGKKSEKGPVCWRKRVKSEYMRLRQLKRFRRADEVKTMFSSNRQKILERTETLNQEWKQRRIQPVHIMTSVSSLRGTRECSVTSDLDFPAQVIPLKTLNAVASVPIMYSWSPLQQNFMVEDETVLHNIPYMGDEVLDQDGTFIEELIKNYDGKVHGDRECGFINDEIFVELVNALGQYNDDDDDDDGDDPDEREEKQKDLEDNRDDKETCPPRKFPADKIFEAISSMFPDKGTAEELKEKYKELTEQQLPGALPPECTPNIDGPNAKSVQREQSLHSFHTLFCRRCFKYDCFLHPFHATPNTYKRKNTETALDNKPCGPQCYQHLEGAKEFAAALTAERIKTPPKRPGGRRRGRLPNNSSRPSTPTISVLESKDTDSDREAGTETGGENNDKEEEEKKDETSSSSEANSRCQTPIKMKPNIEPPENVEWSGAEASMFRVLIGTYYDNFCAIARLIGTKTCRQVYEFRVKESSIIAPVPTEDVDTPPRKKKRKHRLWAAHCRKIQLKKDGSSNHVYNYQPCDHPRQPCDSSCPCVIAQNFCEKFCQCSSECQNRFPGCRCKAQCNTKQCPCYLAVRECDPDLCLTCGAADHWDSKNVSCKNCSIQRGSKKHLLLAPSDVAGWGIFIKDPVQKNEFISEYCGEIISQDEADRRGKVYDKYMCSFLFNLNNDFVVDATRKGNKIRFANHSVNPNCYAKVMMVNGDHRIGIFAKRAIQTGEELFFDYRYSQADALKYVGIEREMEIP

How the values were obtained:
[1] = target: JARID2 (human (endogenous in H9 hESC and hNPC)) (UniProt Q92833); test: co-IP; anti-JARID2 IP from hESC nuclear extract, Western blot
His-JARID2 = His-JARID2 (UniProt Q92833); test: pull-down; His-JARID2 and GST-YBX1; Western blot
[2] = target: T1, Jarid2 (mouse (endogenous in NE-4C cells and in mouse neural tube)) (UniProt Q62315); test: co-IP; IgG, Jarid2 and Ybx1 IP from mouse neural tube nuclear extract (E13.5); Western blot
T1 sequence: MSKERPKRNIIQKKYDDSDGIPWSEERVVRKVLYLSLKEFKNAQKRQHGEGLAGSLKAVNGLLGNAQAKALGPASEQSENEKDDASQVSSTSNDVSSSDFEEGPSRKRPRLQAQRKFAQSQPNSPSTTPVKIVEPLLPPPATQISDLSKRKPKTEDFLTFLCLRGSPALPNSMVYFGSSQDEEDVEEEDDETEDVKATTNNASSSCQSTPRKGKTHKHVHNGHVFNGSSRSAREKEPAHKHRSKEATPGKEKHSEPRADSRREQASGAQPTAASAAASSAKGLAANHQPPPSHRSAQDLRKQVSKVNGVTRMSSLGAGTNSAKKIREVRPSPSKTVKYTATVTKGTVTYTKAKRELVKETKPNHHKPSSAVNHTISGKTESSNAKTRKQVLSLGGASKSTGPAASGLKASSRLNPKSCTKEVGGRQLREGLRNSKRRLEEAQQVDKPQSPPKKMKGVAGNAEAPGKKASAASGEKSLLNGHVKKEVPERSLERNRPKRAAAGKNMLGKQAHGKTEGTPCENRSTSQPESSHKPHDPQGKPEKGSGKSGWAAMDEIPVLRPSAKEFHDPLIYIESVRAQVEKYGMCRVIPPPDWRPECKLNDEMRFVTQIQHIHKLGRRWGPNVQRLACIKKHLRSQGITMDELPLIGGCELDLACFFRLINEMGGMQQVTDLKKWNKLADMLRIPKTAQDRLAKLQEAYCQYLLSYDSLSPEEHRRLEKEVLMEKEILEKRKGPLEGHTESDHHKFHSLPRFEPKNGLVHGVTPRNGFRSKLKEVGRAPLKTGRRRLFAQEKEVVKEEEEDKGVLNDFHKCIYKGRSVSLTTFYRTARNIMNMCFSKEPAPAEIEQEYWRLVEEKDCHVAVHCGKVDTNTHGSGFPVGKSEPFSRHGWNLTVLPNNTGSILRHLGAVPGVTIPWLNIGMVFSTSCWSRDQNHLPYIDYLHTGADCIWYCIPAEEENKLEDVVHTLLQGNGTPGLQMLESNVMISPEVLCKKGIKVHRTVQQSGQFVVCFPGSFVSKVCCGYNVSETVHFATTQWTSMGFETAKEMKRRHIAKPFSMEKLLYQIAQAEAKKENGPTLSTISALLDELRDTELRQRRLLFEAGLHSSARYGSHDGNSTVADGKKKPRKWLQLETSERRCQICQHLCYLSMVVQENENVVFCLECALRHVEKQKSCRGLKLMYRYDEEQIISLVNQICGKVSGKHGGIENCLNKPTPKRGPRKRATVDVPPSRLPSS

[3] = target: Ybx1 (mouse (endogenous in NE-4C cells and in mouse neural tube)) (UniProt P62960); test: as above
[4] = target: JARID2 (human (endogenous in H9 hESC and hNPC)) (UniProt Q92833); test: co-IP; IgG, JARID2, YBX1 and SUZ12 IP from hNPC nuclear extract; Western blot
[5] = target: SUZ12 (human (endogenous in H9 hESC and hNPC)) (UniProt Q15022); test: as above
[6] = target: JARID2 (human (endogenous in H9 hESC and hNPC)) (UniProt Q92833); test: co-IP; IgG, JARID2 and YBX1 IP from hESC nuclear extract; benzonase treatment (125 U/mL, 30 min RT), high-stringency washes, 2 other JARID2 antibodies; Western blot
[7] = target: Ybx1 (mouse (endogenous in NE-4C cells and in mouse neural tube)) (UniProt P62960); test: co-IP; IgG, Jarid2 and Ybx1 IP from mouse neural tube nuclear extract (E13.5); Western blot; remark: listed apart in the source

G9A (from UniProt Q96KQ7 1-1210)
binding [1]: no binding

GST-YBX1 (from UniProt P67809 1-324)
binding (His-JARID2): binds

PRC2 (from UniProt Q61188 1-746; Q80U70 1-741; Q921E6 1-441) (complex)
binding [2]: binds | binding [3]: binds

Y-box binding protein 1 (from UniProt P67809 1-324)
binding [4]: binds | binding [5]: binds weakly | binding [6]: binds

B1: Jarid2 (protein, UniProt Q62315 1-1234)
chain: MSKERPKRNIIQKKYDDSDGIPWSEERVVRKVLYLSLKEFKNAQKRQHGEGLAGSLKAVNGLLGNAQAKALGPASEQSENEKDDASQVSSTSNDVSSSDFEEGPSRKRPRLQAQRKFAQSQPNSPSTTPVKIVEPLLPPPATQISDLSKRKPKTEDFLTFLCLRGSPALPNSMVYFGSSQDEEDVEEEDDETEDVKATTNNASSSCQSTPRKGKTHKHVHNGHVFNGSSRSAREKEPAHKHRSKEATPGKEKHSEPRADSRREQASGAQPTAASAAASSAKGLAANHQPPPSHRSAQDLRKQVSKVNGVTRMSSLGAGTNSAKKIREVRPSPSKTVKYTATVTKGTVTYTKAKRELVKETKPNHHKPSSAVNHTISGKTESSNAKTRKQVLSLGGASKSTGPAASGLKASSRLNPKSCTKEVGGRQLREGLRNSKRRLEEAQQVDKPQSPPKKMKGVAGNAEAPGKKASAASGEKSLLNGHVKKEVPERSLERNRPKRAAAGKNMLGKQAHGKTEGTPCENRSTSQPESSHKPHDPQGKPEKGSGKSGWAAMDEIPVLRPSAKEFHDPLIYIESVRAQVEKYGMCRVIPPPDWRPECKLNDEMRFVTQIQHIHKLGRRWGPNVQRLACIKKHLRSQGITMDELPLIGGCELDLACFFRLINEMGGMQQVTDLKKWNKLADMLRIPKTAQDRLAKLQEAYCQYLLSYDSLSPEEHRRLEKEVLMEKEILEKRKGPLEGHTESDHHKFHSLPRFEPKNGLVHGVTPRNGFRSKLKEVGRAPLKTGRRRLFAQEKEVVKEEEEDKGVLNDFHKCIYKGRSVSLTTFYRTARNIMNMCFSKEPAPAEIEQEYWRLVEEKDCHVAVHCGKVDTNTHGSGFPVGKSEPFSRHGWNLTVLPNNTGSILRHLGAVPGVTIPWLNIGMVFSTSCWSRDQNHLPYIDYLHTGADCIWYCIPAEEENKLEDVVHTLLQGNGTPGLQMLESNVMISPEVLCKKGIKVHRTVQQSGQFVVCFPGSFVSKVCCGYNVSETVHFATTQWTSMGFETAKEMKRRHIAKPFSMEKLLYQIAQAEAKKENGPTLSTISALLDELRDTELRQRRLLFEAGLHSSARYGSHDGNSTVADGKKKPRKWLQLETSERRCQICQHLCYLSMVVQENENVVFCLECALRHVEKQKSCRGLKLMYRYDEEQIISLVNQICGKVSGKHGGIENCLNKPTPKRGPRKRATVDVPPSRLPSS
binding [7]: binds weakly
